Reference: US10690673B2, “Method of treating cancer metastasis by CDK 4/6 inhibitors” (Mayo Foundation for Medical Education and Research, priority 2016, dated 2020)
For at least one compound, name, drawing or mass did not settle the structure.

Legend:
SNAIL1 polypeptide [1] = test: SNAIL1 polypeptide level by Western blotting in breast cancer cells; type: cell-based, human; conditions: for expression of SNAIL1: increasing concentrations, 24 hours
Description: FIG. 3. DUB3 deubiquitinates and stabilizes SNAIL1. (A) Cell extracts were prepared from 4 luminal and 4 basal like subtypes of human breast cancer cell lines, and expression of SNAIL1, DUB3, E-cadherin and vimentin was analyzed by Western blotting. (B) MDA-MB-231 cells stably expressing control or DUB3 shRNAs were generated and Western blot was performed with the indicated antibodies. (C) Total RNA was isolated from cells in (B). mRNAs encoding SNAIL and β-actin were determined by reverse transcription-polymerase chain reaction (RT-PCR) and agarose gel electrophoresis. (D) MDA-MB-231 cells stably expressing control or DUB3 shRNAs were treated with vehicle or MG-132 (10 μM) for 1 hour and Western blot was performed with the indicated antibodies. (E-F) T47D and MCF-7 cells were infected with virus containing vector (“V”), FLAG-DUB3 (“WT”) and the C89S (“CS”) mutant, and Western blots were performed. (F) CHX pulse-chase assay was performed in cells. (G) Cells were cotransfected with indicated plasmids and treated with MG132 for 6 hours before cell lysates were boiled and immunoprecipitated with HA beads, and the polyubiquitylated SNAIL1 polypeptide was detected by an anti-ubiquitin antibody. (H) Cells were transfected with HA-SNAIL1 and treated with MG132 for 6 hours. Cell lysates were boiled and immunoprecipitated with HA beads and incubated with GST, GST-DUB3 or GST-DUB3 C89S mutant. The polyubiquitylated SNAIL1 polypeptide was detected by an anti-ubiquitin antibody.
FIG. 10. Ser41 phosphorylation regulates DUB3 activity. (A) Cells transfected with indicated constructs were lysed and co-immunoprecipitations experiments were performed using anti-FLAG antibody. The immunoprecipates were eluted by FLAG-peptide containing buffer and the activities of DUB3 were assayed using Ubiquitin-AMC (Ub-AMC) as a substrate. (B) The eluates were detected with anti-FLAG antibody. (C) MDA-MB-231 cells were treated with either vehicle or […] for indicated periods. Western blotting was performed with indicated antibodies.
FIG. 11. Phosphorylation of Ser41 regulates DUB3 activity. (A) Cells were cotransfected with indicated plasmids and treated with vehicle or CDK 4/6 inhibitor (PD0332991 10 μM). Cell lysates were boiled and immunoprecipitated with HA beads and immunoblotted as indicated. (B) Cells were transfected with indicated plasmids and the polyubiquitylated SNAIL1 polypeptide was examined by Western blotting. (C) Cells were cotransfected with indicated plasmids and Ni-NTA beads were used to pull down His-tagged ubiquitin, and the polyubiquitylated SNAIL1 polypeptide was examined by Western blotting. (D) MDA-MB-231 cells were treated with vehicle or PD0332991 in the absence or presence of MG-132. Western blotting was performed as indicated. (E) Cells were treated with vehicle or PD0332991 for 12 hours and CHX pulse-chase assay was performed. (F) Cells were transfected with indicated plasmids and Western blotting was performed as indicated. (G) The migratory abilities of cells were analyzed by a wound healing assay. […] After 12 weeks, mice were sacrificed and the development of lung metastases was determined by counting and quantifying lung metastatic nodules.
FIG. 14. […] (B) MDA-MB-231 cells were treated with vehicle or LY2835219 and the migration ability of cells was measured by a wound healing assay. […] (D) HCC1806 cells were treated with vehicle or LY2835219 and the migration ability of cells was measured by a wound healing assay. […]

HCC1806 cells = test: Wound healing (migration) assay, HCC1806; type: cell-based; conditions: vs vehicle, FIG. 14D
MDA-MB-231 cells = test: Wound healing (migration) assay, MDA-MB-231; type: cell-based, human; conditions: vs vehicle, FIG. 14B
[2] = tested on: phosphorylation of DUB3 at Ser41; test: Phosphorylation of DUB3 at Ser41 in transfected cells (anti-FLAG immunoprecipitation, Western blotting); type: cell-based; conditions: cells transfected with FLAG-DUB3 WT
Description: FIG. 8. CDK 4/6 phosphorylates DUB3 at Ser 41. (A) DUB3 phosphorylation sites were analyzed by mass spectrometry. If the Ascore values for Ascore Seq_A are above 19, then the location is considered confidently assigned (indicated with pink cell backgrounds). (B) Cells were transfected with indicated plasmids and cell lysates were subjected to immunoprecipitation with an anti-FLAG antibody and Western blotting was performed. (C) Cells were transfected with indicated plasmids and were treated with vehicle, or pan-CDK inhibitor (Roscovitine 5 μM) or CDK 4/6 inhibitor (PD0332991 10 μM). The phosphorylation of Ser41 was examined. (D) CDK 4/6 phosphorylates DUB3 in vitro. Bacterially expressed GST and GST-DUB3 fusion polypeptides were incubated with active CDK4 or CDK6 in the presence of [γ-32P]ATP. Polypeptides were resolved by SDS-PAGE, and phosphorylated polypeptides were visualized with autoradiography. (E) Vector or FLAG-DUB3 were transfected in cells stably expressing indicated shRNA. The phosphorylation of Ser41 in DUB3 was then examined.
FIG. 15. CDK1 phosphorylates DUB3 at Ser41 in vitro, and the treatment of pan-CDK inhibitor Roscovitine decreased phosphorylation of DUB3. (A) Bacterially-expressed GST-DUB3 WT and GST-DUB3 S41A fusion polypeptides were incubated with active CDK4, CDK6, CDK1, or CDK2 in the presence of [γ-^32P]ATP. […]

SNAIL1 ubiquitination = SNAIL1 ubiquitination in cells transfected with FLAG-DUB3 and HA-SNAIL1 (denaturing immunoprecipitation); type: cell-based; conditions: PD0332991 10 μM; FIG. 11A
[3] = tested on: human breast tumor biopsy sample HCI001; test: Patient-derived xenograft (PDX) model of triple negative breast cancer, tumor growth and metastasis; type: in vivo, mice; conditions: 100 mg/kg daily, PO, five weeks, n=8; vs saline
Description: FIG. 13. CDK 4/6 inhibition inhibits cancer metastasis. (A) DUB3 and SNAIL1 polypeptide levels in a subset of human breast tumor biopsy samples were examined. (B) Passage 3 tumors from HCI001 were used to test the effect of PD0332991 on metastasis. When primary tumors reached 100-150 mm^3, mice were randomized and treated either with saline or PD0332991 for five weeks (n=8). Tumor weights were measured after mice were sacrificed (B). Tumor volumes were measured every week (C). After mice were sacrificed, liver (D-F) and lung (G-I) metastatic nodules were examined macroscopically or detected in paraffin-embedded sections stained with H&E. (J) The working model to illustrate that CDK 4/6 phosphorylation-dependent activation of DUB3 regulates EMT and metastasis through SNAIL1.
The results provided herein indicate that DUB3 stabilizes SNAIL1 polypeptide through deubiquitinating SNAIL1 and CDK 4/6 activity is involved in SNAIL1 stabilization. […] DUB3 and SNAIL1 levels were detected and correlated in a subset of human breast cancer samples from the BEAUTY project (FIG. 13A). […]
A patient-derived xenograft model was generated from an estrogen receptor-negative, progesterone receptor-negative, human epidermal growth factor receptor 2-negative (ER^−PR^−_HER2^−) high-grade invasive ductal carcinoma. […] Tumor volumes were measured once per week. […] Data were analyzed using Student's t test. […]

SNAIL1 polypeptide [4] = test: CHX pulse-chase assay of SNAIL1 polypeptide stability; type: cell-based; conditions: cells treated with PD0332991 for 12 hours; FIG. 11E

SMILES | expression of SNAIL1 (SNAIL1 polypeptide [1]; BT549 cells, FIG. 14C) | expression of SNAIL1 (SNAIL1 polypeptide [1]; HCC1806 cells, FIG. 14C) | expression of SNAIL1 (SNAIL1 polypeptide [1]; MDA-MB-231 cells, FIG. 14A) | expression of SNAIL1 (SNAIL1 polypeptide [1]; MDA-MB-468 cells, FIG. 14C) | migratory activity (HCC1806 cells) | migratory activity (MDA-MB-231 cells) | phosphorylation of DUB3 at Ser41 ([2]; Example 11, FIG. 15B, concentration not given) | phosphorylation of DUB3 at Ser41 ([2]; PD0332991 10 μM, FIG. 8C) | level of SNAIL1 polypeptide (SNAIL1 polypeptide [1]; MDA-MB-231 cells, PD0332991 vs vehicle, FIG. 11D, FIG. 10C) | SNAIL1 ubiquitination compared to vehicle (SNAIL1 ubiquitination) | primary tumor growth (tumor weight, tumor volume) [3] | SNAIL1 polypeptide stability (SNAIL1 polypeptide [4])
CCN1CCN(Cc2ccc(Nc3ncc(F)c(-c4cc(F)c5nc(C)n(C(C)C)c5c4)n3)nc2)CC1 [LY2835219, Abemaciclib] | progressively decreased | progressively decreased | progressively decreased | progressively decreased | effectively inhibited | effectively inhibited |  |  |  |  |  | 
CC(=O)c1c(C)c2cnc(Nc3ccc(N4CCNCC4)cn3)nc2n(C2CCCC2)c1=O [PD0332991, Palbociclib] |  |  |  |  |  |  | dramatically reduced | dramatically reduced | significantly reduced | stronger | did not affect | dramatically decreased
